Measured data: PubChem BioAssay AID1508597 (Cure First, 2020)

- Aim: 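Genes whose silencing sensitises or protects ovarian cancer cells against rucaparib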 (primary screen)
- System: human ovarian carcinoma lines grown from tumours: OCI-P5x (papillary serous) and OCI-C5x (clear cell)
- Knock-down reagent: siRNA pool against human genes, 1.25 pmol siRNA per well
- Time to read-out: 72 h or 96 h, depending on the cell culture
- Treatment: rucaparib 20 µM (about IC30) or vehicle, present until read-out
- Read-out: 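ATP luminescence measured at 72 or 96 h according to the culture, then normalised and expressed as percent viability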
- Scale: viability, normalised: higher = more viable cells remaining
- Hit rule: 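a well counts as a hit if its normalised viability is under 80 percent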
- Calls: active = viability under 80%; inactive = viability 80% or more
In all, the deposit lists about 2,100 reagents; shown is a part drawn at random. 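Calls flag viability under 80% in either arm, not effects specific to rucaparib; the reference for percent is not stated.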 Entries without a mark were called inactive. Not given: the 100% reference.

gene,rucaparib or vehicle,cell line,technical replicate,"viability, normalised (%)"
MED12,Rucaparib,OCI-C5x (clear cell),1,46.2 (active)
MED12,Rucaparib,OCI-C5x (clear cell),2,48.6 (active)
MED12,Rucaparib,OCI-C5x (clear cell),3,40.4 (active)
MED12,Rucaparib,OCI-P5x (serous),1,56.4 (active)
MED12,Rucaparib,OCI-P5x (serous),2,54.7 (active)
MED12,Rucaparib,OCI-P5x (serous),3,34 (active)
MED12,Vehicle,OCI-C5x (clear cell),1,33.4 (active)
MED12,Vehicle,OCI-C5x (clear cell),2,45.4 (active)
MED12,Vehicle,OCI-C5x (clear cell),3,46.5 (active)
MED12,Vehicle,OCI-P5x (serous),1,58.2 (active)
MED12,Vehicle,OCI-P5x (serous),2,67.4 (active)
MED12,Vehicle,OCI-P5x (serous),3,51.8 (active)
BBC3,Rucaparib,OCI-C5x (clear cell),1,74.5 (active)
BBC3,Rucaparib,OCI-C5x (clear cell),2,40 (active)
BBC3,Rucaparib,OCI-C5x (clear cell),3,45.8 (active)
BBC3,Rucaparib,OCI-P5x (serous),1,77.2 (active)
BBC3,Rucaparib,OCI-P5x (serous),2,83.6
BBC3,Rucaparib,OCI-P5x (serous),3,90.3
BBC3,Vehicle,OCI-C5x (clear cell),1,38.6 (active)
BBC3,Vehicle,OCI-C5x (clear cell),2,44.3 (active)
BBC3,Vehicle,OCI-C5x (clear cell),3,49.6 (active)
BBC3,Vehicle,OCI-P5x (serous),1,84.8
BBC3,Vehicle,OCI-P5x (serous),2,85.5
BBC3,Vehicle,OCI-P5x (serous),3,94.2
MAP3K1,Rucaparib,OCI-C5x (clear cell),1,58.3 (active)
MAP3K1,Rucaparib,OCI-C5x (clear cell),2,53 (active)
MAP3K1,Rucaparib,OCI-C5x (clear cell),3,34.8 (active)
MAP3K1,Rucaparib,OCI-P5x (serous),1,122
MAP3K1,Rucaparib,OCI-P5x (serous),2,115
MAP3K1,Rucaparib,OCI-P5x (serous),3,90.3
MAP3K1,Vehicle,OCI-C5x (clear cell),1,57.3 (active)
MAP3K1,Vehicle,OCI-C5x (clear cell),2,58.3 (active)
MAP3K1,Vehicle,OCI-C5x (clear cell),3,66.9 (active)
MAP3K1,Vehicle,OCI-P5x (serous),1,82.2
MAP3K1,Vehicle,OCI-P5x (serous),2,71.6 (active)
MAP3K1,Vehicle,OCI-P5x (serous),3,63 (active)
KDM3A,Rucaparib,OCI-C5x (clear cell),1,51.4 (active)
KDM3A,Rucaparib,OCI-C5x (clear cell),2,42.8 (active)
KDM3A,Rucaparib,OCI-C5x (clear cell),3,45.9 (active)
KDM3A,Rucaparib,OCI-P5x (serous),1,47.4 (active)
KDM3A,Rucaparib,OCI-P5x (serous),2,44.8 (active)
KDM3A,Rucaparib,OCI-P5x (serous),3,39 (active)
KDM3A,Vehicle,OCI-C5x (clear cell),1,59.7 (active)
KDM3A,Vehicle,OCI-C5x (clear cell),2,46.9 (active)
KDM3A,Vehicle,OCI-C5x (clear cell),3,45.9 (active)
KDM3A,Vehicle,OCI-P5x (serous),1,42.8 (active)
KDM3A,Vehicle,OCI-P5x (serous),2,50.2 (active)
KDM3A,Vehicle,OCI-P5x (serous),3,50.7 (active)
